In patent publication US20190331690A1, “BIOTHIOL DETECTION COMPOSITION COMPRISING REDOX REGULATION PROTENIN” (INDUSTRY-UNIVERSITY COOPERATION FOUNDATION HANYANG …, priority 2016, published 2019):
Some of these results come from one statement about several compounds together.

The chains behind the UniProt entries cited, without tags or fusion partners. Where a name states a change or a piece, a line headed by the entry shows the natural chain unless it says otherwise.
UniProt O34777: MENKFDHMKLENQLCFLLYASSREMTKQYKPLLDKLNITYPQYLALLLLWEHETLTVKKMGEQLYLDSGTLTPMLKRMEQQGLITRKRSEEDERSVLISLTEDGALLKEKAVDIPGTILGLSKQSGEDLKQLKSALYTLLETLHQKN

Biological target: T1, OhrR (Bacillus subtilis, UniProt O34777)
T1 construct: made in house
Assay: OhrR-biothiol binding by MALDI-TOF MS
Set-up: species or system B. subtilis
Conditions: 300 nM OhrR, 3 μM CHP, 2 minutes
Procedure: It was confirmed whether it is possible to quantitatively analyze the binding of OhrR and a biothiol using a Matrix-Assisted Laser Desorption Ionization-Time-of-Flight Mass Spectrometry (MALDI-TOF mass spectrometer; MALDI-TOF MS).
1 mL of a 300 nM OhrR-containing buffer (20 mM Tris (pH 8.0), 100 mM NaCl, 5% Glycerol) was mixed with a biothiol (Cys, Hcy or GSH) at each concentration (0, 1, 2, 4, 8, 16, 32, or 64 μM). After 3 μM CHP reacted with each resulting mixture for 2 minutes, 110 μL of 100% TCA was treated to stop the oxidation reaction, and precipitate OhrR. To alkylate the precipitated OhrR, 50 mM iodoacetamide was treated, thereby blocking a cysteine residue of the reduced OhrR. The protein was isolated by sodium dodecyl sulphate-polyacrylamide gel electrophoresis (SDS-PAGE), and then a band corresponding to OhrR was cut out and treated with trypsin (37° C., 12 hours or more), followed by extraction from the gel. 0.5 μL of the extracted peptides were treated with 0.5 μL of a-cyano-4-hydroxycinnamic acid (CHCA) (in 50% acetonitrile, 1% TFA) and dehydrated, and then subjected to MALDI-TOF analysis. The MADI-TOF analysis was performed using a 4700 Proteomics Analyzer instrument (Applied Biosystems).

Structure (SMILES): N[C@@H](CCS)C(=O)O [Hcy, homocysteine]
- concentration at which detection by MALDI-TOF MS is possible: ≥ 1 µM
